From patent US9567380B1, “Microtubule organizing center (MTOC)-inactivating peptides” (THE RESEARCH FOUNDATION FOR THE STATE UNIVERSITY OF NEW YORK, priority 2015, dated 2017)

Legend:
MDA-MB-231 cells = test: Mitotic arrest after live cell peptide transfection (Chariot) of MDA-MB-231 cells; assay type: cell-based, human
Procedure: (§1) MCF-7 and MDA-MB-231 (ATCC) cells were maintained in 25 cm^2 tissue culture treated Corning flasks (Sigma-Aldrich) in DMEM complete medium with Glutamax-1 and supplemented with 10% fetal bovine serum. MCF-7 DMEM complete medium was additionally supplemented with 0.01 mg/mL bovine insulin (Sigma-Aldrich). Flasks were maintained at 37° C. in 5% CO2, 95% air, and cells were passaged every 5-7 days using 1 mL TrypLE (Life Technologies).
(§2) For live cell peptide transfection we used the Chariot system (Active Motif) according to the manufacturer's instructions. Cells were seeded into 35 mm tissue culture-treated dishes containing coverslips and grown in complete medium to ˜60% confluency. 1 μg of Kinesin-14 Tail peptide PγTR (GenScript) was diluted in 100 μL 1×PBS on ice. 6 μL of 1/10 PBS-diluted Chariot reagent was further diluted into 100 μL sterile water on ice in a separate tube. Diluted peptide and diluted Chariot were combined and incubated at room temperature for 30 minutes to allow the Chariot-peptide complex to form. Following incubation, media was aspirated from cells, which were then washed once in 1×PBS. […]
(§3) For statistical analysis of phenotypes, n values were chosen as number of cells per strain needed to ensure adequate power to detect significant outcomes. […] For cell cycle arrest by 1 μg transfection of PγTR, 12 fields at 200× were counted. […]

[1] = system: human MCF-7 breast cancer cells; test: Mitotic arrest after live cell peptide transfection (Chariot) of MCF-7 cells; assay type: cell-based
Procedure: as §1, §2, §3

[2] = 24 h after transfection with 1 μg peptide

YSKFKESAAPQLKDLIGSGAEKDHEYSLQLQ (6-His tag) [PγTR, Kinesin-14 Pkl1 Tail peptide, γ-TuRC targeting and regulatory; used 6-His tagged]
percentage of population with very low but detectable levels of peptide at the centrosome, cells appeared normal (MDA-MB-231 cells; 24 h after transfection): 5.1% | cells transfected with peptide based on fluorescence staining using the 6-His tag (MDA-MB-231 cells; [2]): 27.7% | percentage of population with very low but detectable levels of peptide at the centrosome, cells appeared normal ([1]; 24 h after transfection): 4.3% | cells transfected with peptide based on fluorescence staining using the 6-His tag [1, 2]: 43.3%
